# From article PMC7819943, “Rice protein-binding microarrays: a tool to detect cis-acting elements near promoter regions in rice”
# Some of the results follow.
# Biological target: T1, OsSMF1 (Oryza sativa, UniProt Q6ZLB0 1-436)
# T1 sequence: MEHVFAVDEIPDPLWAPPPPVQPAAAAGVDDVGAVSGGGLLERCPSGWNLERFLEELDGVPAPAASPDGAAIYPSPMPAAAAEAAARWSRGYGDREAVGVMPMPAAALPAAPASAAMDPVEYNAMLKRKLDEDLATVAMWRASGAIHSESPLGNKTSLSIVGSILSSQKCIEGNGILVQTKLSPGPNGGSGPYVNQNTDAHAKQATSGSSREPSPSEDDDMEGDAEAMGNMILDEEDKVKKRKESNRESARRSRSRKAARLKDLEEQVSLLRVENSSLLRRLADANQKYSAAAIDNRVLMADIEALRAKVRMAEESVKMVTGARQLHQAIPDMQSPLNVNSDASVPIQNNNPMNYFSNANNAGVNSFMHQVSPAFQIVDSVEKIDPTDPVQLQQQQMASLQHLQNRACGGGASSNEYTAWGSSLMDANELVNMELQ
# Experiment: protein-binding microarray (RPBM); PBS, 2% BSA, 51.3 ng/ul salmon testes DNA, 50 uM zinc acetate, 200 nM TF, 25 C, 1 h; high values mean tight binding
# Conditions: protein: recombinant; tags: N-terminal polyhistidine and DsRed monomer fusion (pET32a); chain copies: 2; label: CyDye5-dUTP incorporated in the synthesized complementary strand; 3' TTTTT single-stranded linker to array surface; dsDNA, one strand shown
# In short: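 In PBS with 2% BSA, salmon testes DNA and 50 µM zinc acetate, 200 nM protein was incubated on a custom Agilent array at 25 °C for 1 h and then washed off. The array had been made double-stranded by primer extension with Cy5-dUTP and blocked with 2% BSA. The proteins were transcription factors fused N-terminally to polyhistidine and DsRed, expressed in E. coli BL21-CodonPlus and purified on Ni–NTA. The binding signal is per-feature fluorescence intensity (arbitrary units) from an Axon 4000B scanner.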
row,Sequence,binding signal
1,ATTGCTGTTGCGTCCACGTCAAAAGCAGGCAGCAAATACACGGAGTCACCTAGTGCAG,3240 fluorescence intensity (a.u.)
2,CTCGTGGGGACGACGCTGGTGTCCGTGTACTGCAAGTGCGCGGAGTCACCTAGTGCAG,4060 fluorescence intensity (a.u.)
3,TATCGAATTTTATAATTTTGTATCAATTCCAATACCACCACGGAGTCACCTAGTGCAG,3170 fluorescence intensity (a.u.)
4,GCCTTCTGCTATTGCTGATGCGGCAGCGGATGTACCGCGGCGGAGTCACCTAGTGCAG,4820 fluorescence intensity (a.u.)
5,GCCGGCGCCGGCGCCGCCGTGGCGTCACCCGCACCTATTACGGAGTCACCTAGTGCAG,4500 fluorescence intensity (a.u.)
6,GATTAAATTTTGATATGAGCGGTTCTAATCCATGAGACAACGGAGTCACCTAGTGCAG,21600 fluorescence intensity (a.u.)
7,GTAGCAGGAGGGTTGCGTAATACGTTACCAGCACGACGTTCGGAGTCACCTAGTGCAG,3570 fluorescence intensity (a.u.)
8,GATACATTATAGTATAATGAATCTGGACACGTAGATTTATCGGAGTCACCTAGTGCAG,3890 fluorescence intensity (a.u.)
9,CGTGCCGCTGGCTCTTGACACGCTATGCTGATCTGGCAGGCGGAGTCACCTAGTGCAG,14400 fluorescence intensity (a.u.)
10,AACATGGAGTTTTCCTTTTCTTGGTTATGTCATGACATAACGGAGTCACCTAGTGCAG,3530 fluorescence intensity (a.u.)
11,CCAGCGCGCGTTCACACATAGAGATGGATAGGGAGAGGGCCGGAGTCACCTAGTGCAG,26700 fluorescence intensity (a.u.)
12,CAACTAAAACGTGTACTAGCATCTAGCAGTACGAACCAGCCGGAGTCACCTAGTGCAG,3720 fluorescence intensity (a.u.)
13,TACATATCCAAGTGTAGAGGCGCCGTCAGAGAACTTATTACGGAGTCACCTAGTGCAG,38900 fluorescence intensity (a.u.)
14,AATCCTACTAGTAAAATGCAATTCATGCTGGCAGTTGGGCCGGAGTCACCTAGTGCAG,22000 fluorescence intensity (a.u.)
15,ATTCCGAGGCTTCCATTCTCTCTGTCAGACTTTGTCACCGCGGAGTCACCTAGTGCAG,4050 fluorescence intensity (a.u.)
16,ATGGGAAAGTAAATCAATTAACATATATACTCGTTTAAAACGGAGTCACCTAGTGCAG,16500 fluorescence intensity (a.u.)
17,TCTCCCACGTCATCGTCGTCGTCGCCGCTGCCCTCCTCCTCGGAGTCACCTAGTGCAG,25200 fluorescence intensity (a.u.)
18,AGTAGGGAAAGTTACAACGCAGCCTAACGTGGGATAGCGGCGGAGTCACCTAGTGCAG,3980 fluorescence intensity (a.u.)
19,AGAGAGTAGTACTGTACGGTGACTAGGGTTGACTAGTCCCCGGAGTCACCTAGTGCAG,3930 fluorescence intensity (a.u.)
20,CATGATGTGGAGAAGTTGACCAATGATCTTGCTGGCCTAGCGGAGTCACCTAGTGCAG,22400 fluorescence intensity (a.u.)
21,GGGGATTACATCTGCCTAAGCAGCCGCGTGTCGATTTCGGCGGAGTCACCTAGTGCAG,3740 fluorescence intensity (a.u.)

row,Sequence,binding signal
1,TGCCGCTAATCAGTGACGCAGAGTCACAAATGAACACCATCGGAGTCACCTAGTGCAG,3970 fluorescence intensity (a.u.)
2,ACTTGTATCCGTCATGCCTGCATTCTAGTCACCATGTAGCCGGAGTCACCTAGTGCAG,4240 fluorescence intensity (a.u.)
3,GTCACCTTGGTACGTGTTCAATATGTTGCGCATATTTGATCGGAGTCACCTAGTGCAG,4370 fluorescence intensity (a.u.)
4,AGTAGCACAATCTTCGTGTTGATTCATTCCTCCTGTGGTCCGGAGTCACCTAGTGCAG,3260 fluorescence intensity (a.u.)
5,TAGACTTTAGCTGCCACTACACCTATGTTACGTATAGATGCGGAGTCACCTAGTGCAG,29300 fluorescence intensity (a.u.)
6,AGTTTTACAATAAATTTACTGTTATAAATATACATTTAACCGGAGTCACCTAGTGCAG,10400 fluorescence intensity (a.u.)
7,CTGAATTTAGACACCTCAGCGCCACGTCAACTGGCGCTGACGGAGTCACCTAGTGCAG,18400 fluorescence intensity (a.u.)
8,TCATCTGATGTCACACTCCCAATGAGTGAAGAATAATACTCGGAGTCACCTAGTGCAG,3450 fluorescence intensity (a.u.)
9,ATGCGGATCTGAGTGGTGGTGGTGGTGGACTGGTGGTTGCCGGAGTCACCTAGTGCAG,3760 fluorescence intensity (a.u.)
10,ACCGGGCGGTAGTGTTAGGATGGTGTTTTCAACTGAAGCACGGAGTCACCTAGTGCAG,22600 fluorescence intensity (a.u.)
11,AATCGGTGTCGTTTTGCACGGCGTGTGCCACGTCAGCGTTCGGAGTCACCTAGTGCAG,52000 fluorescence intensity (a.u.)
12,GAACGGCCGTCTGCCACGTCATTTTCGCCGCCCTCTGGGACGGAGTCACCTAGTGCAG,27000 fluorescence intensity (a.u.)
13,TATGTCAATACTGTATGCATATATTAACATAAAATATCTCCGGAGTCACCTAGTGCAG,4760 fluorescence intensity (a.u.)
14,ATTACTAATTTATGTGGTAATCGACCGCGTGCAAGAATTACGGAGTCACCTAGTGCAG,3150 fluorescence intensity (a.u.)
15,AACGAGACAATAATATGTCAGACATATCCATCTAGCTGCGCGGAGTCACCTAGTGCAG,4300 fluorescence intensity (a.u.)
16,TGGCTAACCTCACTGCCACGCGTGCCCCACCCCAGTGGGACGGAGTCACCTAGTGCAG,6810 fluorescence intensity (a.u.)
17,AAATCTGTGTCGATAGATGCCACATCTGCCGACCCTGCAACGGAGTCACCTAGTGCAG,6130 fluorescence intensity (a.u.)
18,ATCCTCAACTCAATCCCGACGAAATCCCCTTCGATTTGAGCGGAGTCACCTAGTGCAG,3290 fluorescence intensity (a.u.)
19,CGGGCTGGGCGAGCGCTGGGCGATGCCACGTCGGATAGGACGGAGTCACCTAGTGCAG,14700 fluorescence intensity (a.u.)
20,GCTGTCGTCGTCGTTGCTGCCGTCGTCGTCACCGTCGTCGCGGAGTCACCTAGTGCAG,4340 fluorescence intensity (a.u.)
21,CGATCTCCCCTTTTGCCCTCCAACTTGACGCGTCAATGGACGGAGTCACCTAGTGCAG,4030 fluorescence intensity (a.u.)

# As a working copy, part of the list above:
row,Sequence,binding signal
9,ATGCGGATCTGAGTGGTGGTGGTGGTGGACTGGTGGTTGCCGGAGTCACCTAGTGCAG,3760 fluorescence intensity (a.u.)
10,ACCGGGCGGTAGTGTTAGGATGGTGTTTTCAACTGAAGCACGGAGTCACCTAGTGCAG,22600 fluorescence intensity (a.u.)
11,AATCGGTGTCGTTTTGCACGGCGTGTGCCACGTCAGCGTTCGGAGTCACCTAGTGCAG,52000 fluorescence intensity (a.u.)
12,GAACGGCCGTCTGCCACGTCATTTTCGCCGCCCTCTGGGACGGAGTCACCTAGTGCAG,27000 fluorescence intensity (a.u.)
13,TATGTCAATACTGTATGCATATATTAACATAAAATATCTCCGGAGTCACCTAGTGCAG,4760 fluorescence intensity (a.u.)
14,ATTACTAATTTATGTGGTAATCGACCGCGTGCAAGAATTACGGAGTCACCTAGTGCAG,3150 fluorescence intensity (a.u.)
15,AACGAGACAATAATATGTCAGACATATCCATCTAGCTGCGCGGAGTCACCTAGTGCAG,4300 fluorescence intensity (a.u.)
16,TGGCTAACCTCACTGCCACGCGTGCCCCACCCCAGTGGGACGGAGTCACCTAGTGCAG,6810 fluorescence intensity (a.u.)
17,AAATCTGTGTCGATAGATGCCACATCTGCCGACCCTGCAACGGAGTCACCTAGTGCAG,6130 fluorescence intensity (a.u.)
18,ATCCTCAACTCAATCCCGACGAAATCCCCTTCGATTTGAGCGGAGTCACCTAGTGCAG,3290 fluorescence intensity (a.u.)
